Data taken from US20260124170A1, “PHARMACEUTICAL COMPOSITION COMPRISING METABOLITE OF ENAVOGLIFLOZIN, AND USE THEREOF” (DAEWOONG PHARMACEUTICAL CO., LTD., priority 2022, published 2026).
Some entries share one result that the patent states for a list of compounds.

System: STZ-induced type 1 diabetic rats
Assay: Non-fasting blood glucose in type 1 diabetic rat model
Assay type: in vivo
Details: 1 mg/kg single intravenous dose
Experimental: STZ was administered to Sprague Dawley (SD) male 5-week-old rats on day 0 (G2 to G7, excluding G1), and non-fasting blood glucose levels were measured on day 3 to determine whether type 1 diabetes was induced. On day 7, the experimental substances were administered to each group, and blood and urine samples were collected at 6 h, 24 h, 48 h, and 72 h to measure non-fasting blood glucose levels. On day 14 of the experiment, the experimental animals were fasted for 16 h, and on day 15, 2 g/kg of glucose solution was orally administered after the experimental substances were administered. Thereafter, blood glucose levels were measured at 15, 30, 60, 90, and 120 minutes after glucose administration. After blood collection, the serum was separated, and the IL-6 inflammatory response was evaluated using an interleukin-6 (IL-6) enzyme-linked immunosorbent assay (ELISA) kit.

SMILES	Duration of statistically significant blood sugar-lowering effect compared to the vehicle group
OC[C@H]1O[C@@H](c2cc(Cc3ccc(C4CC4)cc3)c(Cl)c3c2CC(O)O3)[C@H](O)[C@@H](O)[C@@H]1O (stereo partly drawn) [M1, (2S,3R,4R,5S,6R)-2-(7-chloro-6-(4-cyclopropylbenzyl)-2-hydroxy-2,3-dihydrobenzofuran-4-yl)-6-(hydroxymethyl)tetrahydro-2H-pyran-3,4,5-triol]	up to 48 hours
OC[C@H]1O[C@@H](c2cc(Cc3ccc(C4CC4)cc3)c(Cl)c3c2CCO3)[C@H](O)[C@@H](O)[C@@H]1O [Enavogliflozin, (2S,3R,4R,5S,6R)-2-(7-chloro-6 (4-cyclopropylbenzyl)-2,3-dihydrobenzofuran-4-yl)-6-(hydroxymethyl)tetrahydro-2H-pyran-3,4,5-triol]	up to 48 hours
